In patent US20260345555A1, “Compositions and Methods for Protecting Salivary Glands from Off-Target Radiation Damage” (University of Rochester, priority 2022, published 2026):

Assay: Drug promiscuity: percent of PubChem BioAssay assays reported as active
Conditions: percent of BioAssay database assays reported as active (promiscuity)

Question: With `CC(C)(C)C(=O)OCOP(=O)(COCCn1cnc2c(N)ncnc21)OCOC(=O)C(C)(C)C` [Adefovir Dipivoxil (Preveon)] as the compound, how does the “Active (%)” value read?
Answer: 22.7%

Question: With `CCCSc1ccc2nc(NC(=O)OC)[nH]c2c1` [Albendazole (Albenza)] as the compound, how does the “Active (%)” value read?
Answer: 9.3%

Question: Which “Active (%)” value does the source give for `C=C1/C(=C\C=C2/CCC[C@]3(C)[C@@H]([C@H](C)CCCC(C)(C)O)CC[C@@H]23)C[C@@H](O)C[C@@H]1O` [Calcitriol (Rocaltrol)] here?
Answer: 15.2%

Question: With `O=C1CCc2cc(OCCCCc3nnnn3C3CCCCC3)ccc2N1` [Cilostazol] as the compound, how does the “Active (%)” value read?
Answer: 2.5%

Question: Which “Active (%)” value does the source give for `COc1cc(/C=C/C(=O)CC(=O)/C=C/c2ccc(O)c(OC)c2)ccc1O` [Curcumin] here?
Answer: 29.7%

Question: Which “Active (%)” value does the source give for `O=c1[nH]cnc2c1ncn2[C@H]1CC[C@@H](CO)O1` [Didanosine (Videx)] here?
Answer: 5.7%

Question: Which “Active (%)” value does the source give for `CC/C(=C(/CC)c1ccc(O)cc1)c1ccc(O)cc1` [Diethylstilbestrol (Stilbestrol)] here?
Answer: 7.2%

Question: Which “Active (%)” value does the source give for `Nc1nc(=O)n([C@@H]2CS[C@H](CO)O2)cc1F` [Emtricitabine (Emtriva)] here?
Answer: 9.3%

Question: With `CCn1cc(C(=O)O)c(=O)c2cc(F)c(N3CCNCC3)nc21` [Enoxacin (Penetrex)] as the compound, how does the “Active (%)” value read?
Answer: 1.9%

Question: Which “Active (%)” value does the source give for `COC(=O)[C@@H]1CC2=CC(=O)CC[C@]2(C)[C@@]23O[C@@H]2C[C@@]2(C)[C@@H](CC[C@@]24CCC(=O)O4)[C@H]13` [Eplerenone] here?
Answer: 5.9%

Question: For `CC(O)(P(=O)(O)O)P(=O)(O)O` [Etidronate (Didronel)], which “Active (%)” value is on record?
Answer: 1.1%

Question: Which “Active (%)” value does the source give for `Nc1ccn([C@@H]2O[C@H](CO)[C@@H](O)C2(F)F)c(=O)n1` [Gemcitabine (Gemzar)] here?
Answer: 46.7%

Question: With `Cc1cnc(C(=O)NCCc2ccc(S(=O)(=O)NC(=O)NC3CCCCC3)cc2)cn1` [Glipizide (Glucotrol)] as the compound, how does the “Active (%)” value read?
Answer: 0.5%

Question: For `COc1ccc2c(c1)c(CC(=O)O)c(C)n2C(=O)c1ccc(Cl)cc1` [Indomethacin], which “Active (%)” value is on record?
Answer: 6.6%

Question: For `O=NN(CCCl)C(=O)NC1CCCCC1` [Lomustine (CeeNU)], which “Active (%)” value is on record?
Answer: 16.1%

Question: Which “Active (%)” value does the source give for `COc1ccc2[nH]cc(CCNC(C)=O)c2c1` [Melatonin] here?
Answer: 8.2%

Question: With `COC(=O)C1=C(C)NC(C)=C(C(=O)OC)C1c1ccccc1[N+](=O)[O-]` [Nifedipine (Adalat)] as the compound, how does the “Active (%)” value read?
Answer: 11.5%

Question: For `NC(=O)N1c2ccccc2CC(=O)c2ccccc21` [Oxcarbazepine], which “Active (%)” value is on record?
Answer: 1.3%

Question: Which “Active (%)” value does the source give for `CCCCC1C(=O)N(c2ccccc2)N(c2ccccc2)C1=O` [Phenylbutazone] here?
Answer: 1.5%

Question: For `COc1cc2nc(N3CCN(C(=O)c4ccco4)CC3)nc(N)c2cc1OC` [Prazosin HCl], which “Active (%)” value is on record?
Answer: 6.3%

Question: Which “Active (%)” value does the source give for `CO[C@H]1/C=C/O[C@@]2(C)Oc3c(C)c(O)c4c(c3C2=O)C2=NC3(CCN(CC(C)C)CC3)NC2=C(NC(=O)/C(C)=C\C=C\[C@H](C)[C@H](O)[C@@H](C)[C@@H](O)[C@@H](C)[C@H](OC(C)=O)[C@@H]1C)C4=O` [Rifabutin (Mycobutin)] here?
Answer: 12.0%

Question: With `CO[C@H]1/C=C/O[C@@]2(C)Oc3c(C)c(O)c4c(O)c(c(/C=N/N5CCN(C)CC5)c(O)c4c3C2=O)NC(=O)/C(C)=C\C=C\[C@H](C)[C@H](O)[C@@H](C)[C@@H](O)[C@@H](C)[C@H](OC(C)=O)[C@@H]1C` [Rifampin] as the compound, how does the “Active (%)” value read?
Answer: 11.0%

Question: With `C[C@]12C=CC(=O)C=C1CC[C@H]1[C@@H]3C[C@@H](O)[C@](O)(C(=O)CO)[C@@]3(C)C[C@H](O)[C@@]12F` [Triamcinolone (Aristocort)] as the compound, how does the “Active (%)” value read?
Answer: 2.7%

Question: For Doripenem hydrate, which “Active (%)” value is on record?
Answer: 1.4%

Question: Which “Active (%)” value does the source give for Meropenem here?
Answer: 1.3%

Counter-ions that a name gives are not always drawn.
